Reference: patent publication US20250283871A1, “COMPOSITIONS AND METHODS FOR MODULATING THE INTERACTION BETWEEN SS18-SSX FUSION ONCOPROTEIN AND NUCLEOSOMES” (Dana-Farber Cancer Institute, Inc., priority 2020, published 2025)

B1: HNRNPCL4 (protein, UniProt P0DMR1 1-293, looked up)
Heterogeneous nuclear …: MASNVTNKMDPHSMNSRVFIGNLNTLVVKKSDVEAIFSKYGKIAGCSVHKGFAFVQYDKEKNARAAVAGEDGRMIASQVVDINLAAEPKVNRGNAGVKRSAAEMYGSSFDLDYNLQRDYYGGMYSFPARVPPPPPIALAVVPSKRQRISGNTSRRGKSGFNSKSGKRGSSKSGKLKGDDLQAIKQELTQIKQKVDSLLENLEKIEKEHCKQGVEVKNAKSEEEQTSSSSKKDKTHVKMESEGGADDSVEEGDLLCDDDNEDQGDNQLELIKDDEKGAEEGEDDRDRANGQDDS
B2: CIZ1 (protein, UniProt Q9ULV3 1-898, looked up)
Cip1-interacting zinc finger …: MFSQQQQQQLQQQQQQLQQLQQQQLQQQQLQQQQLLQLQQLLQQSPPQAPLPMAVSRGLPPQQPQQPLLNLQGTNSASLLNGSMLQRALLLQQLQGLDQFAMPPATYDTAGLTMPTATLGNLRGYGMASPGLAAPSLTPPQLATPNLQQFFPQATRQSLLGPPPVGVPMNPSQFNLSGRNPQKQARTSSSTTPNRKDSSSQTMPVEDKSDPPEGSEEAAEPRMDTPEDQDLPPCPEDIAKEKRTPAPEPEPCEASELPAKRLRSSEEPTEKEPPGQLQVKAQPQARMTVPKQTQTPDLLPEALEAQVLPRFQPRVLQVQAQVQSQTQPRIPSTDTQVQPKLQKQAQTQTSPEHLVLQQKQVQPQLQQEAEPQKQVQPQVQPQAHSQGPRQVQLQQEAEPLKQVQPQVQPQAHSQPPRQVQLQLQKQVQTQTYPQVHTQAQPSVQPQEHPPAQVSVQPPEQTHEQPHTQPQVSLLAPEQTPVVVHVCGLEMPPDAVEAGGGMEKTLPEPVGTQVSMEEIQNESACGLDVGECENRAREMPGVWGAGGSLKVTILQSSDSRAFSTVPLTPVPRPSDSVSSTPAATSTPSKQALQFFCYICKASCSSQQEFQDHMSEPQHQQRLGEIQHMSQACLLSLLPVPRDVLETEDEEPPPRRWCNTCQLYYMGDLIQHRRTQDHKIAKQSLRPFCTVCNRYFKTPRKFVEHVKSQGHKDKAKELKSLEKEIAGQDEDHFITVDAVGCFEGDEEEEEDDEDEEEIEVEEELCKQVRSRDISREEWKGSETYSPNTAYGVDFLVPVMGYICRICHKFYHSNSGAQLSHCKSLGHFENLQKYKAAKNPSPTTRPVSRRCAINARNALTALFTSSGRPPSQPNTQDKTPSKVTARPSQPPLPRRSTRLKT
B3: PGK1 (protein, UniProt P00558 2-417, looked up)
Phosphoglycerate kinase 1: SLSNKLTLDKLDVKGKRVVMRVDFNVPMKNNQITNNQRIKAAVPSIKFCLDNGAKSVVLMSHLGRPDGVPMPDKYSLEPVAVELKSLLGKDVLFLKDCVGPEVEKACANPAAGSVILLENLRFHVEEEGKGKDASGNKVKAEPAKIEAFRASLSKLGDVYVNDAFGTAHRAHSSMVGVNLPQKAGGFLMKKELNYFAKALESPERPFLAILGGAKVADKIQLINNMLDKVNEMIIGGGMAFTFLKVLNNMEIGTSLFDEEGAKIVKDLMSKAEKNGVKITLPVDFVTADKFDENAKTGQATVASGIPAGWMGLDCGPESSKKYAEAVTRAKQIVWNGPVGVFEWEAFARGTKALMDEVVKATSRGCITIIGGGDTATCCAKWNTEDKVSHVSTGGGASLELLEGKVLPGVDALSNI
B4: ADAMTS19 (protein, UniProt Q8TE59 323-1213, looked up)
A disintegrin and …: YSYKLPQEYNIETVVVADPAMVSYHGADAARRFILTILNMVFNLFQHKSLSVQVNLRVIKLILLHETPPELYIGHHGEKMLESFCKWQHEEFGKKNDIHLEMSTNWGEDMTSVDAAILITRKDFCVHKDEPCDTVGIAYLSGMCSEKRKCIIAEDNGLNLAFTIAHEMGHNMGINHDNDHPSCADGLHIMSGEWIKGQNLGDVSWSRCSKEDLERFLRSKASNCLLQTNPQSVNSVMVPSKLPGMTYTADEQCQILFGPLASFCQEMQHVICTGLWCKVEGEKECRTKLDPPMDGTDCDLGKWCKAGECTSRTSAPEHLAGEWSLWSPCSRTCSAGISSRERKCPGLDSEARDCNGPRKQYRICENPPCPAGLPGFRDWQCQAYSVRTSSPKHILQWQAVLDEEKPCALFCSPVGKEQPILLSEKVMDGTSCGYQGLDICANGRCQKVGCDGLLGSLAREDHCGVCNGNGKSCKIIKGDFNHTRGAGYVEVLVIPAGARRIKVVEEKPAHSYLALRDAGKQSINSDWKIEHSGAFNLAGTTVHYVRRGLWEKISAKGPTTAPLHLLVLLFQDQNYGLHYEYTIPSDPLPENQSSKAPEPLFMWTHTSWEDCDATCGGGERKTTVSCTKIMSKNISIVDNEKCKYLTKPEPQIRKCNEQPCQTRWMMTEWTPCSRTCGKGMQSRQVACTQQLSNGTLIRARERDCIGPKPASAQRCEGQDCMTVWEAGVWSECSVKCGKGIRHRTVRCTNPRKKCVLSTRPREAEDCEDYSKCYVWRMGDWSKCSITCGKGMQSRVIQCMHKITGRHGNECFSSEKPAAYRPCHLQPCNEKINVNTITSPRLAALTFKCLGDQWPVYCRVIREKNLCQDMRWYQRCCETCRDFYAQKLQQKS
B5: ZBTB38 (protein, UniProt Q8NAP3 1-1195, looked up)
Zinc finger and BTB …: MTVMSLSRDLKDDFHSDTVLSILNEQRIRGILCDVTIIVEDTKFKAHSNVLAASSLYFKNIFWSHTICISSHVLELDDLKAEVFTEILNYIYSSTVVVKRQETVTDLAAAGKKLGISFLEDLTDRNFSNSPGPYVFCITEKGVVKEEKNEKRHEEPAITNGPRITNAFSIIETENSNNMFSPLDLRASFKKVSDSMRTASLCLERTDVCHEAEPVRTLAEHSYAVSSVAEAYRSQPVREHDGSSPGNTGKENCEALAAKPKTCRKPKTFSIPQDSDSATENIPPPPVSNLEVNQERSPQPAAVLTRSKSPNNEGDVHFSREDENQSSDVPGPPAAEVPPLVYNCSCCSKAFDSSTLLSAHMQLHKPTQEPLVCKYCNKQFTTLNRLDRHEQICMRSSHMPIPGGNQRFLENYPTIGQNGGSFTGPEPLLSENRIGEFSSTGSTLPDTDHMVKFVNGQMLYSCVVCKRSYVTLSSLRRHANVHSWRRTYPCHYCNKVFALAEYRTRHEIWHTGERRYQCIFCLETFMTYYILKNHQKSFHAIDHRLSISKKTANGGLKPSVYPYKLYRLLPMKCKRAPYKSYRNSSYENARENSQMNESAPGTYVVQNPHSSELPTLNFQDTVNTLTNSPAIPLETSACQDIPTSANVQNAEGTKWGEEALKMDLDNNFYSTEVSVSSTENAVSSDLRAGDVPVLSLSNSSENAASVISYSGSAPSVIVHSSQFSSVIMHSNAIAAMTSSNHRAFSDPAVSQSLKDDSKPEPDKVGRFASRPKSIKEKKKTTSHTRGEIPEESNYVADPGGSLSKTTNIAEETSKIETYIAKPALPGTSTNSNVAPLCQITVKIGNEAIVKRHILGSKLFYKRGRRPKYQMQEEPLPQGNDPEPSGDSPLGLCQSECMEMSEVFDDASDQDSTDKPWRPYYNYKPKKKSRQLKKMRKVNWRKEHGNRSPSHKCKYPAELDCAVGKAPQDKPFEEEETKEMPKLQCELCDGDKAVGAGNQGRPHRHLTSRPYACELCAKQFQSPSTLKMHMRCHTGEKPYQCKTCGRCFSVQGNLQKHERIHLGLKEFVCQYCNKAFTLNETLKIHERIHTGEKRYHCQFCFQRFLYLSTKRNHEQRHIREHNGKGYACFQCPKICKTAAALGMHQKKHLFKSPSQQEKIGDVCHENSNPLENQHFIGSEDNDQKDNIQTGVENVVL
B6: PHC2 (protein, UniProt Q8IXK0 1-858, looked up)
Polyhomeotic-like protein 2: MENELPVPHTSSSACATSSTSGASSSSGCNNSSSGGSGRPTGPQISVYSGIPDRQTVQVIQQALHRQPSTAAQYLQQMYAAQQQHLMLQTAALQQQHLSSAQLQSLAAVQQASLVSNRQGSTSGSNVSAQAPAQSSSINLAASPAAAQLLNRAQSVNSAAASGIAQQAVLLGNTSSPALTASQAQMYLRAQMLIFTPTATVATVQPELGTGSPARPPTPAQVQNLTLRTQQTPAAAASGPTPTQPVLPSLALKPTPGGSQPLPTPAQSRNTAQASPAGAKPGIADSVMEPHKKGDGNSSVPGSMEGRAGLSRTVPAVAAHPLIAPAYAQLQPHQLLPQPSSKHLQPQFVIQQQPQPQQQQPPPQQSRPVLQAEPHPQLASVSPSVALQPSSEAHAMPLGPVTPALPLQCPTANLHKPGGSQQCHPPTPDTGPQNGHPEGVPHTPQRRFQHTSAVILQLQPASPPQQCVPDDWKEVAPGEKSVPETRSGPSPHQQAIVTAMPGGLPVPTSPNIQPSPAHETGQGIVHALTDLSSPGMTSGNGNSASSIAGTAPQNGENKPPQAIVKPQILTHVIEGFVIQEGAEPFPVGRSSLLVGNLKKKYAQGFLPEKLPQQDHTTTTDSEMEEPYLQESKEEGAPLKLKCELCGRVDFAYKFKRSKRFCSMACAKRYNVGCTKRVGLFHSDRSKLQKAGAATHNRRRASKASLPPLTKDTKKQPTGTVPLSVTAALQLTHSQEDSSRCSDNSSYEEPLSPISASSSTSRRRQGQRDLELPDMHMRDLVGMGHHFLPSEPTKWNVEDVYEFIRSLPGCQEIAEEFRAQEIDGQALLLLKEDHLMSAMNIKLGPALKIYARISMLKDS
B7: CDY2A (protein, UniProt Q9Y6F7 1-541, looked up)
Testis-specific chromodomain …: MASQEFEVEAIVDKRQDKNGNTQYLVRWKGYDKQDDTWEPEQHLMNCEKCVHDFNRRQTEKQKKLTWTTTSRIFSNNARRRTSRSTKANYSKNSPKTPVTDKHHRSKNCKLFAASKNVRRKAASTLSDTKNMEIINSTIETLAPDSPFDHKKTVSGFQKLEKLDPIAADQQDTVVFKVTEGKLLRDPLSHPGAEQTGIQNKTQMHPLMSQMSGSVTASMATGSATRKGIVVLIDPLAANGTTDMHTSVPRVKGGQRNITDDSRGQPFIKKMHFTIRLTESAITYRDIVVKKEDGFTQIVLSTRSTEKNALNTEVIKEMVNALNSAAADDSKLVLFSAAGSVFCCGLDFGYFVRHLRNDRNTASLEMVDTIKNFVNTFIQFKKPIVVSVNGPAIGLGASILPLCDLVWANEKAWFQTPYTTFGQSPDGCSSITFPKMMGKASANEMLIAGRKLTAREACAKGLVSQVFLTGTFTQEVMIQIKELASYNAIVLEECKALVRCNIKLELEQANERECEVLRKIWSSAQGIESMLKYVENKIDEF

Tested on: BAF complex subunits and histone proteins
Experiment: Mass spectrometry proteomics of purified HA-SS18 WT and HA-SS18-SSX1 complexes (Tables 5A-5E)
Set-up: species or system human
Conditions: HA-SS18SSX1_CHR_peptides: proteins found in HA-SS18-SSX1 BAF complex purification from solubilized chromatin (CHR), HEK-293T

Total (peptides), 1:
B1, B2, B3, B4, B5, B6, B7

Unique (peptides), 1:
B1, B2, B3, B4, B5, B6, B7

Same assay, conditions: HA-SS18WT_CHR_peptides: protein identified in HA-SS18 WT BAF complex purification from nuclease-treated solubilized chromatin (CHR), HEK-293T

Total (total peptides), 1:
B1

Unique (unique peptides), 1:
B1

Same assay, conditions: HA-SS18WT_NE_peptides: proteins co-purified with HA-SS18 WT from nuclear extract (NE), HEK-293T

Total (peptides), 1:
B4

Unique (peptides), 1:
B4
